Structures are written as SMILES.

The data set in a line: PK of PAA, ORN and PAGN in severe renal impairment vs normal renal function, Study 5.
The mark [1] stands for this setting: normal renal function, LOPA 15 g/24 hour IV.
Setting [2] is: severely impaired renal function, LOPA 7 g/24 hours IV.

Turning to `NCCC[C@H](N)C(=O)O` [ORN, ornithine], under setting [1], the “mean dose normalized baseline corrected ORN AUC0-inf” value came out at 64.1 µg·h/mL/g and the “mean dose normalized baseline corrected ORN Cmax” value is 2.09 µg/mL/g. Moreover, under setting [2], the “mean dose normalized baseline corrected ORN AUC0-inf” value was found to be 80.3 µg·h/mL/g and the “mean dose normalized baseline corrected ORN Cmax” value amounted to 2.28 µg/mL/g.

The values are drawn from patent US12697317B2, “Dosages and uses of ornithine phenylacetate for treating hyperammonemia” (priority 2019, dated 2026).
